{"source": "patent US7071163B2", "about": "“Compounds for targeting hepatocytes in vivo” (Mirus Bio Corporation, priority 2002, dated 2006)", "tested_on": "hepatocytes", "assay": "Delivery of Cy3-streptavidin by biotinylated synthetic p17 peptide, mouse", "conditions": "data not shown", "note": "Not every detail of the peptide structures is certain; ends, links or a residue may be inferred. Peptide text beside a SMILES is read from it. * marks the point of attachment. Biotin = O=C1N[C@H]2[C@H](CS[C@H]2CCCCC(=O)*)N1; PEG4 = NCCOCCOCCOCCOCCC(=O)O"}
{"smiles": "C[C@H](NC(=O)[C@H](CCC(=O)O)NC(=O)[C@H](CC(=O)O)NC(=O)[C@H](CCCNC(=N)N)NC(=O)[C@H](Cc1ccccc1)NC(=O)CNC(=O)[C@H](CCCCN)NC(=O)[C@@H](NC(=O)[C@H](CCC(=O)O)NC(=O)[C@H](CC(=O)O)NC(=O)[C@H](CCCNC(=N)N)NC(=O)[C@H](Cc1c[nH]c2ccccc12)NC(=O)[C@H](CCC(N)=O)NC(=O)[C@H](CCCCN)NC(=O)[C@@H](NC(=O)[C@H](CC(N)=O)NC(=O)[C@@H](NC(=O)[C@H](C)NC(=O)[C@H](CC(N)=O)NC(=O)[C@@H](NC(=O)[C@H](CO)NC(=O)[C@H](CO)NC(=O)[C@H](CCC(=O)O)NC(=O)[C@H](CC(N)=O)NC(=O)[C@H](CCCCN)NC(=O)CCOCCOCCOCCOCCNC(=O)CCOCCOCCOCCOCCNC(=O)CCCC[C@@H]1SC[C@@H]2NC(=O)N[C@@H]21)[C@@H](C)O)[C@@H](C)O)[C@@H](C)O)[C@@H](C)O)C(=O)N[C@@H](CCCCN)C(=O)N[C@@H](CCCNC(=N)N)C(=O)N[C@@H](Cc1ccccc1)C(=O)N[C@@H](CCCCN)C(=O)N[C@@H](CC(N)=O)C(=O)N[C@H](C(=O)N[C@@H](C)C(=O)NCC(=O)O)[C@@H](C)O", "note": "[MC893] ({Biotin-PEG4-PEG4}-KNESSTNATNTKQWRDETKGFRDEAKRFKNTAG-OH)", "values": [{"measurement": "targeted Cy3-SA signal at high peptide ratio", "setting": "MC893 to SA ratios higher than 18:1", "value": "dose dependent decrease in targeted signal"}, {"measurement": "Cy3-SA localization at low peptide ratio", "setting": "ratios lower than 9:1", "value": "majority of Cy3-SA signal was on or near basolateral membranes of hepatocytes and sinusoidal cell membranes"}]}
